# Experimental data as given in the supplement of paper PMC8728848.
# The other results are listed elsewhere or left out.
# B1: SynCAM (Mus musculus) (protein)
# chain: MASAVLPSGSQCAAAAAVAAAAAPPGLRLRLLLLLLSAAALIPTGDGQNLFTKDVTVIEGEVATISCQVNKSDDSVIQLLNPNRQTIYFRDFRPLKDSRFQLLNFSSSELKVSLTNVSISDEGRYFCQLYTDPPQESYTTITVLVPPRNLMIDIQKDTAVEGEEIEVNCTAMASKPATTIRWFKGNKELKGKSEVEEWSDMYTVTSQLMLKVHKEDDGVPVICQVEHPAVTGNLQTQRYLEVQYKPQVHIQMTYPLQGLTREGDAFELTCEAIGKPQPVMVTWVRVDDEMPQHAVLSGPNLFINNLNKTDNGTYRCEASNIVGKAHSDYMLYVYDPPTTIPPP
# Tests used:
# Experiment in all cases: glycan array binding signal (z-score within array); higher = stronger binding
# Details in all cases: glycan notation: IUPAC condensed, linker removed
# Glc(b1-6)Glc = target: Glc(b1-6)Glc
# Outline: (§1)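 Arrays were curated from the Consortium for Functional Glycomics database, 3228 in total, and kept only where the protein sequence was available. Binding is expressed as a within-array Z-score. This score was averaged across arrays of the same protein sequence at different concentrations or buffers and across linkers, and negative values can be read as non-binding.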
# GlcA(b1-3)Gal = target: GlcA(b1-3)Gal
# Outline: as §1
# GlcA(b1-3)GlcNAc = target: GlcA(b1-3)GlcNAc
# Outline: as §1
# GlcA(b1-6)Gal = target: GlcA(b1-6)Gal
# Outline: as §1
# [1] = target: GlcA3S(b1-3)Gal(b1-4)GlcNAc(b1-2)Man
# Outline: as §1
# [2] = target: GlcA3S(b1-3)Gal(b1-4)GlcNAc(b1-3)Gal(b1-4)Glc
# Outline: as §1
# [3] = target: GlcNAc(a1-3)Gal(b1-4)GlcNAc
# Outline: as §1
# [4] = target: GlcNAc(a1-4)Gal(b1-3)GlcNAc
# Outline: as §1
# [5] = target: GlcNAc(a1-4)Gal(b1-4)GalNAc
# Outline: as §1
# [6] = target: GlcNAc(a1-4)Gal(b1-4)GlcNAc
# Outline: as §1
# [7] = target: GlcNAc(a1-4)Gal(b1-4)GlcNAc(b1-3)Gal(b1-4)Glc
# Outline: as §1
# [8] = target: GlcNAc(a1-4)Gal(b1-4)GlcNAc(b1-3)Gal(b1-4)GlcNAc
# Outline: as §1
# [9] = target: GlcNAc(a1-4)Gal(b1-4)GlcNAc(b1-3)Gal(b1-4)GlcNAc(b1-3)Gal(b1-4)GlcNAc
# Outline: as §1
# [10] = target: GlcNAc(a1-4)Gal(b1-4)GlcNAc(b1-3)Gal(b1-4)[Fuc(a1-3)]GlcNAc(b1-3)Gal(b1-4)[Fuc(a1-3)]GlcNAc
# Outline: as §1
# [11] = target: GlcNAc(a1-6)Gal(b1-4)GlcNAc
# Outline: as §1
# [12] = target: GlcNAc(b1-2)Gal(b1-3)GalNAc
# Outline: as §1
# [13] = target: GlcNAc(b1-2)Man(a1-3)[GlcNAc(b1-2)Man(a1-6)]Man(b1-4)GlcNAc(b1-4)GlcNAc
# Outline: as §1
# [14] = target: GlcNAc(b1-2)Man(a1-3)[GlcNAc(b1-2)Man(a1-6)]Man(b1-4)GlcNAc(b1-4)[Fuc(a1-6)]GlcNAc
# Outline: as §1
# [15] = target: GlcNAc(b1-2)Man(a1-3)[GlcNAc(b1-4)][GlcNAc(b1-2)Man(a1-6)]Man(b1-4)GlcNAc(b1-4)GlcNAc
# Outline: as §1
# [16] = target: GlcNAc(b1-2)Man(a1-3)[GlcNAc(b1-4)][GlcNAc(b1-2)Man(a1-6)]Man(b1-4)GlcNAc(b1-4)[Fuc(a1-6)]GlcNAc
# Outline: as §1
# [17] = target: GlcNAc(b1-2)[GlcNAc(b1-4)]Man(a1-3)[GlcNAc(b1-2)Man(a1-6)]Man(b1-4)GlcNAc(b1-4)GlcNAc
# Outline: as §1
# [18] = target: GlcNAc(b1-2)[GlcNAc(b1-4)]Man(a1-3)[GlcNAc(b1-4)][GlcNAc(b1-2)Man(a1-6)]Man(b1-4)GlcNAc(b1-4)GlcNAc
# Outline: as §1
# [19] = target: GlcNAc(b1-2)[GlcNAc(b1-4)]Man(a1-3)[GlcNAc(b1-4)][GlcNAc(b1-2)[GlcNAc(b1-6)]Man(a1-6)]Man(b1-4)GlcNAc(b1-4)GlcNAc
# Outline: as §1
# [20] = target: GlcNAc(b1-2)[GlcNAc(b1-4)]Man(a1-3)[GlcNAc(b1-4)][GlcNAc(b1-2)[GlcNAc(b1-6)]Man(a1-6)]Man(b1-4)GlcNAc(b1-4)[Fuc(a1-6)]GlcNAc
# Outline: as §1
# [21] = target: GlcNAc(b1-2)[GlcNAc(b1-6)]Man(a1-6)[GlcNAc(b1-2)Man(a1-3)]Man(b1-4)GlcNAc(b1-4)GlcNAc
# Outline: as §1
# [22] = target: GlcNAc(b1-2)[GlcNAc(b1-6)]Man(a1-6)[GlcNAc(b1-2)Man(a1-3)]Man(b1-4)GlcNAc(b1-4)[Fuc(a1-6)]GlcNAc
# Outline: as §1
# [23] = target: GlcNAc(b1-2)[GlcNAc(b1-6)]Man(a1-6)[GlcNAc(b1-4)][GlcNAc(b1-2)Man(a1-3)]Man(b1-4)GlcNAc(b1-4)GlcNAc
# Outline: as §1
# GlcNAc(b1-3)Fuc = target: GlcNAc(b1-3)Fuc
# Outline: as §1
# GlcNAc(b1-3)Gal = target: GlcNAc(b1-3)Gal
# Outline: as §1
# [24] = target: GlcNAc(b1-3)Gal(b1-3)GalNAc
# Outline: as §1
# GlcNAc(b1-3)Gal(b1-4)Glc = target: GlcNAc(b1-3)Gal(b1-4)Glc
# Outline: as §1
# [25] = target: GlcNAc(b1-3)Gal(b1-4)GlcNAc
# Outline: as §1
# [26] = target: GlcNAc(b1-3)Gal(b1-4)GlcNAc(b1-2)Man(a1-3)[GlcNAc(b1-3)Gal(b1-4)GlcNAc(b1-2)Man(a1-6)]Man(b1-4)GlcNAc(b1-4)GlcNAc
# Outline: as §1
# [27] = target: GlcNAc(b1-3)Gal(b1-4)GlcNAc(b1-2)Man(a1-3)[GlcNAc(b1-3)Gal(b1-4)GlcNAc(b1-2)Man(a1-6)]Man(b1-4)GlcNAc(b1-4)[Fuc(a1-6)]GlcNAc
# Outline: as §1
# [28] = target: GlcNAc(b1-3)Gal(b1-4)GlcNAc(b1-2)[GlcNAc(b1-3)Gal(b1-4)GlcNAc(b1-6)]Man(a1-6)[GlcNAc(b1-3)Gal(b1-4)GlcNAc(b1-2)Man(a1-3)]Man(b1-4)GlcNAc(b1-4)GlcNAc
# Outline: as §1
# [29] = target: GlcNAc(b1-3)Gal(b1-4)GlcNAc(b1-3)Gal(b1-4)GlcNAc
# Outline: as §1
# [30] = target: GlcNAc(b1-3)Gal(b1-4)GlcNAc(b1-3)Gal(b1-4)GlcNAc(b1-2)Man(a1-3)[GlcNAc(b1-3)Gal(b1-4)GlcNAc(b1-3)Gal(b1-4)GlcNAc(b1-2)Man(a1-6)]Man(b1-4)GlcNAc(b1-4)GlcNAc
# Outline: as §1
binder,measurement,setting,value
B1,glycan array binding signal (z-score),Glc(b1-6)Glc,-0.181
same,glycan array binding signal (z-score),GlcA(b1-3)Gal,-0.854
same,glycan array binding signal (z-score),GlcA(b1-3)GlcNAc,-0.282
same,glycan array binding signal (z-score),GlcA(b1-6)Gal,-0.287
same,glycan array binding signal (z-score),[1],-0.452
same,glycan array binding signal (z-score),[2],-0.697
same,glycan array binding signal (z-score),[3],0.779
same,glycan array binding signal (z-score),[4],-0.742
same,glycan array binding signal (z-score),[5],1.3
same,glycan array binding signal (z-score),[6],-1.14
same,glycan array binding signal (z-score),[7],-0.804
same,glycan array binding signal (z-score),[8],-0.509
same,glycan array binding signal (z-score),[9],-0.69
same,glycan array binding signal (z-score),[10],-0.398
same,glycan array binding signal (z-score),[11],-0.421
same,glycan array binding signal (z-score),[12],-1.15
same,glycan array binding signal (z-score),[13],-0.116
same,glycan array binding signal (z-score),[14],-0.477
same,glycan array binding signal (z-score),[15],0.08
same,glycan array binding signal (z-score),[16],-1.06
same,glycan array binding signal (z-score),[17],0.069
same,glycan array binding signal (z-score),[18],0.664
same,glycan array binding signal (z-score),[19],-0.132
same,glycan array binding signal (z-score),[20],0.102
same,glycan array binding signal (z-score),[21],-0.446
same,glycan array binding signal (z-score),[22],-0.466
same,glycan array binding signal (z-score),[23],-0.782
same,glycan array binding signal (z-score),GlcNAc(b1-3)Fuc,-0.241
same,glycan array binding signal (z-score),GlcNAc(b1-3)Gal,-0.269
same,glycan array binding signal (z-score),[24],0.922
same,glycan array binding signal (z-score),GlcNAc(b1-3)Gal(b1-4)Glc,-0.32
same,glycan array binding signal (z-score),[25],-0.123
same,glycan array binding signal (z-score),[26],-0.044
same,glycan array binding signal (z-score),[27],-0.382
same,glycan array binding signal (z-score),[28],1.72
same,glycan array binding signal (z-score),[29],-0.618
same,glycan array binding signal (z-score),[30],1.07

# An excerpt of these results, tab-delimited.
binder	measurement	setting	value
B1	glycan array binding signal (z-score)	[13]	-0.116
same	glycan array binding signal (z-score)	[14]	-0.477
